Patent publication US20140302113A1, “SYSTEMS, DEVICES, AND METHODS FOR EMBEDDING DRUG MOLECULES INTO MEDICAL CATHETERS OR TUBES” (priority 2011, published 2014)
Where “and” joins values, the source holds several entries; their conditions need not be identical. Equal entries are not always repeated. At least one read-out could not be matched to a standard name with certainty.

Assay: Recovery of lidocaine in water after normal autoclave process (HPLC)
Assay type: physicochemical
Conditions: about 0.15 g lidocaine in 6 mL water, two vials

In the case of `CCN(CC)CC(=O)Nc1c(C)cccc1C` [Lidocaine, lidocaine], the recovery of lidocaine is reported as 98.3 wt % and 99.5 wt %.
